Test results as given in PubChem BioAssay AID1671190 (National Center for Advancing Translational Sciences (NCATS), 2021).
Hit rate of the full screen: of about 580,000 compounds, about 6,100 (1.1%) were called active. This list was built around the results that the source calls inconclusive (neither active nor inactive); the mix of calls is not that of the screen. Calls come from the whole dose curve; as a rule, active = well fitted inhibition curve with a large enough effect; inconclusive = small, poorly fitted or top-dose-only effect, or another doubt; inactive = no such curve, though single readings can be large or run the other way. Potencies beside an inconclusive call are fits to weak or partial responses and may not hold up.

Amino acid sequences for entries named in this document (tags omitted).
UniProt P18054, whole entry, looked up: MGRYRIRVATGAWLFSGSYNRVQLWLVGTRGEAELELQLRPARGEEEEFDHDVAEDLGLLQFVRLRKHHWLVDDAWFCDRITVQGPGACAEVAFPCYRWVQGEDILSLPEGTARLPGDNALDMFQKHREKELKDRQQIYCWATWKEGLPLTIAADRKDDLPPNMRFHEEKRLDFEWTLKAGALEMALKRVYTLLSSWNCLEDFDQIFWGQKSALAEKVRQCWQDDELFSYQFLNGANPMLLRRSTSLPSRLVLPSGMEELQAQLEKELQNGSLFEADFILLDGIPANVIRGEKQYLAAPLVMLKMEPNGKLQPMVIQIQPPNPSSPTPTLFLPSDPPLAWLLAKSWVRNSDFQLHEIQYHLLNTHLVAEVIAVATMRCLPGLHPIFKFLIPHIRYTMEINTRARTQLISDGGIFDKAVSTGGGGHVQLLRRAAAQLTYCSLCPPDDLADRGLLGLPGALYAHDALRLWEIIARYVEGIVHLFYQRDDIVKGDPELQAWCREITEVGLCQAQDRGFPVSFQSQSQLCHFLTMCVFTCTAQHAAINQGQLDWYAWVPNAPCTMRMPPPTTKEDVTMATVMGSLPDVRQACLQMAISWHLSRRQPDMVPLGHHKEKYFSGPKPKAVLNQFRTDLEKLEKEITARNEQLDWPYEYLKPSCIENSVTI

molecular target: Polyunsaturated fatty acid lipoxygenase ALOX12 (Homo sapiens) (UniProt P18054); assay: Primary qHTS assay for inhibitors of human arachidonate 12S-lipoxygenase (ALOX12): Round 2; conditions: purified 12hLO, xylenol orange hydroperoxide absorbance; activity change, negative = inhibition: at 108 µM (top of the series) unless noted
Method in brief: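 Hydroperoxide product was detected by ferrous iron/xylenol orange as the 573 to 405 nm absorbance ratio. Arachidonic acid at 40 uM (final) was turned over for 30 min at room temperature by 150 nM human 12hLO, pH 7.0 Hepes buffer, after 15 min compound preincubation.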
% is set by controls: 0 for no effect and ±100 for the full control effect; potency is the fitted concentration of half-maximal effect.

Question: How did the “activity change, negative = inhibition” value turn out when `O=C(Nc1cccc(Br)c1)N1CCC2(CC1)SCC(=O)N2Cc1ccccc1` was run?
Answer: inactive: 27.5%

Question: Which Potency does the source give for `COc1cc(Cl)ccc1C(=O)N1CCC2(CC1)NC(=O)N(c1ccccc1)N2` here?
Answer: inconclusive: 1.12 µM [inhibitor, full curve, poor fit]

Question: How did the “activity change, negative = inhibition” value turn out when `O=C(OCc1ccc([N+](=O)[O-])cc1)c1cc(S(=O)(=O)N2CCCCC2)ccc1N1CCOCC1` was run?
Answer: inactive: -24.8%

Question: For `Cc1ccc(NC(=O)CN2CCc3ccccc3C2)cc1S(=O)(=O)N1CCOCC1`, which “activity change, negative = inhibition” value is on record?
Answer: inactive: -2.82%

Question: How did the Potency turn out when `c1ccc(-c2onc(-c3ccco3)c2-c2ccc3[nH]ccc3c2)cc1` was run?
Answer: inconclusive: 44.7 µM [inhibitor, partial curve, poor fit]

Question: How did the “activity change, negative = inhibition” value turn out when `CCOC(=O)C1=C(c2ccccc2)N=C2SCC(=O)N2C1c1cccc(OC)c1OC` (centres undefined) was run?
Answer: inactive: 3.7%

Question: For `Cc1ccc(CN2CCN(Cc3ccccc3C(F)(F)F)CC2)cc1`, which Potency is on record?
Answer: inconclusive: 0.224 µM [inhibitor, full curve, poor fit]

Question: Which Potency does the source give for `Fc1ccc(N/N=C/c2ccc(F)c(F)c2)c(F)c1` here?
Answer: active: 7.94 µM

Question: How did the Potency turn out when `CCOc1cc(C2C(C(=O)c3ccc(C)cc3)=C(C(=O)OC)Nc3nnnn32)ccc1O` (centres undefined) was run?
Answer: inconclusive: 28.2 µM [inhibitor, partial curve, poor fit]

Question: How did the Potency turn out when `Cc1nonc1CN(C)C(=O)CC1C(=O)NCCN1Cc1c(F)cccc1Cl` (centres undefined) was run?
Answer: inconclusive: 56.2 µM [inhibitor, partial curve, poor fit]

Question: With `COc1ccc(NC(=O)c2oc3ccccc3c2NC(=O)C2CCCO2)cc1OC` (centres undefined) as the compound, how does the “activity change, negative = inhibition” value read?
Answer: inactive: 1.22%

Question: Which Potency does the source give for `O=C(c1ccc[nH]1)c1cc2cc(Br)ccc2o1` here?
Answer: inconclusive: 31.6 µM [inhibitor, partial curve]

Question: With `COC(=O)N/N=C(\C)c1ccc(Br)cc1` as the compound, how does the “activity change, negative = inhibition” value read?
Answer: inactive: -6.74%

Question: How did the Potency turn out when `O=C(Cc1ccccc1)Nc1sc2c(c1C(=O)Nc1ccccc1)CCCCC2` was run?
Answer: inconclusive: 50.1 µM [inhibitor, partial curve, poor fit]

Question: For `O=c1oc2c(O)cccc2cc1-c1nc2ccccc2[nH]1`, which Potency is on record?
Answer: inconclusive: 56.2 µM [inhibitor, partial curve, poor fit]

Question: `CCc1cccc(NC(=O)Cn2ccn3nc(-c4ccc(F)cc4)c(CO)c3c2=O)c1` was tested. Which Potency did it give?
Answer: inconclusive: 50.1 µM [inhibitor, partial curve, poor fit]

Question: How did the “activity change, negative = inhibition” value turn out when `COc1ccc(/C=C(/NC(=O)c2ccccc2)c2nc3ccccc3[nH]2)cc1OC` was run?
Answer: inactive: 0%

Question: For `COc1ccc(CCNC(=S)NCc2ccc(Cl)c(Cl)c2)cc1OC`, which Potency is on record?
Answer: active: 44.7 µM

Question: `Cc1cc(C(=O)Nc2ccc(S(=O)(=O)Nc3onc(C)c3C)cc2)c(C)o1` was tested. Which “activity change, negative = inhibition” value did it give?
Answer: inactive: 0%

Question: `Cc1oc(-c2cccc3ccccc23)nc1CN1CCC[C@H]1CO` was tested. Which “activity change, negative = inhibition” value did it give?
Answer: inactive: -7.37%

Question: Which “activity change, negative = inhibition” value does the source give for `O=C(COC(=O)/C=C/c1cccc(Cl)c1)Nc1ccc(N2CCOCC2)cc1` here?
Answer: inactive: -5.88%

Question: How did the Potency turn out when `COc1ccc(-c2nnc3ccc(N4C[C@@H](C)O[C@@H](C)C4)nn23)nc1` was run?
Answer: inconclusive: 2.82 µM [inhibitor, full curve]

Question: How did the Potency turn out when `COc1ccc(-c2nc3ccccc3n3c(-c4cccc(C)c4)c4c(=O)n(C)c(=O)n(C)c4c23)cc1` was run?
Answer: inconclusive: 112 µM [inhibitor, single point]

Question: How did the Potency turn out when `Cc1cc(N)ccc1C(C)C` was run?
Answer: inconclusive: 39.8 µM [inhibitor, partial curve, poor fit]

Question: With `Cc1cc(C(=O)Nc2cccc3ccccc23)oc1C` as the compound, how does the activity change, negative = inhibition read?
Answer: inconclusive: -31% [inhibitor]

Question: `CNc1ccccc1C(C)(C)c1cc(-c2cccc(Br)c2)no1` was tested. Which Potency did it give?
Answer: inconclusive: 50.1 µM [inhibitor, partial curve, poor fit]

Question: With `Cc1ccc(-c2cc(C(=O)NCCCN(C)C)c3ccccc3n2)cc1C` as the compound, how does the Potency read?
Answer: inconclusive: 79.4 µM [inhibitor, partial curve, poor fit]

Question: Which “activity change, negative = inhibition” value does the source give for `Cc1ccccc1CN1CC[C@@H]2CN(S(C)(=O)=O)[C@@H]2C1` here?
Answer: inactive: 1.84%

Question: `Cc1oc2c(c1C(=O)NCc1cc(C(=O)O)co1)CCCC2` was tested. Which “activity change, negative = inhibition” value did it give?
Answer: inactive: 8.69%

Question: `CC(NCc1cccnc1)c1ccccc1` (centres undefined) was tested. Which Potency did it give?
Answer: inconclusive: 39.8 µM [inhibitor, partial curve, poor fit]

Question: How did the “activity change, negative = inhibition” value turn out when `Cc1ccc(N(CC(=O)N2CCOCC2)S(C)(=O)=O)cc1` was run?
Answer: inactive: 0.156%

Question: For `CCN(Cc1ccc(Br)s1)C(=O)c1cnc(C)cn1`, which “activity change, negative = inhibition” value is on record?
Answer: inactive: -7.03%

Question: For `CN1Cc2ncnc(NCC3CC3)c2CN(c2ccc(Cl)cc2)C1=O`, which Potency is on record?
Answer: inconclusive: 89.1 µM [inhibitor, single point]

Question: How did the Potency turn out when `COc1ccc(C(=O)NCCc2c[nH]c3ccccc23)c(F)c1` was run?
Answer: inconclusive: 158 µM [inhibitor, single point]

Question: With `COc1ccc(S(=O)(=O)Nc2ccccc2OC)cc1NC(=O)c1cccc(-n2cccc2)c1` as the compound, how does the Potency read?
Answer: inconclusive: 31.6 µM [inhibitor, partial curve, poor fit]

Question: With `CC(C(=O)Nc1ccc(O)c(C(=O)O)c1)N1C(=O)/C(=C/c2cccs2)SC1=S` (centres undefined) as the compound, how does the Potency read?
Answer: inconclusive: 50.1 µM [inhibitor, partial curve, poor fit]

Question: `CC(C)c1nnc(NC(=O)C(Oc2ccccc2)c2ccccc2)s1` (centres undefined) was tested. Which “activity change, negative = inhibition” value did it give?
Answer: inactive: -10.8%

Question: Which Potency does the source give for `CNC(=O)C1CCC(Cn2c(=O)c3sccc3n(CC(=O)Nc3ccc(C)c(C)c3)c2=O)CC1` (centres undefined) here?
Answer: inconclusive: 11.2 µM [inhibitor, partial curve, poor fit]

Question: For `Cc1cc(Oc2ccccc2)nc(SCC(N)=O)n1`, which Potency is on record?
Answer: inconclusive: 70.8 µM [inhibitor, partial curve, poor fit]

Question: `Cn1c2c(c3cc(F)ccc31)CN(C(=O)Nc1ccc(Cl)cc1)CC2` was tested. Which Potency did it give?
Answer: inconclusive: 22.4 µM [inhibitor, full curve]

Question: How did the Potency turn out when `O=C(O)Cn1cc(/C=C2/NC(=O)N(c3ccc(Cl)cc3)C2=O)c2ccccc21` was run?
Answer: inconclusive: 50.1 µM [inhibitor, partial curve, poor fit]

Question: `Cc1ccccc1C(=O)NCC(c1ccco1)N1CCc2ccccc21` (centres undefined) was tested. Which Potency did it give?
Answer: inconclusive: 39.8 µM [inhibitor, partial curve, poor fit]

Question: For `NC1=NC(=O)/C(=C/c2cn(Cc3ccccc3)c3ccccc23)S1`, which Potency is on record?
Answer: inconclusive: 63.1 µM [inhibitor, partial curve, poor fit]

Question: With `COCCCN(C(=O)c1ccccc1)c1nc(-c2ccc(OC)cc2)cs1` as the compound, how does the Potency read?
Answer: inconclusive: 31.6 µM [inhibitor, single point]
